PubChem BioAssay AID1508588, Peter MacCallum Cancer Centre | 2020
Test: 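Genome-wide search for knock-downs that heighten vemurafenib action in melanoma cells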 (primary screen). Cell system: human WM266.4 melanoma cells (BRAF V600 mutant). Reagents: siRNA pool against human genes, 40 nM. Timing: 96 h from transfection to read-out. Challenge: vemurafenib 300 nM (about IC25), added 48 h after transfection, for 48 h; comparison arm got DMSO vehicle only. Measured: 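Cell gain (DAPI nuclei at end minus before drug, mean of two replicates) and medium lactate by absorbance per cell, both as ratio to non-targeting siRNA, also grouped into fold-change classes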. Direction: cell gain with vemurafenib: higher = more cell gain than with non-targeting siRNA; lactate per cell with vemurafenib: higher = more lactate made per cell. Rule for the call: 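a knock-down counts as enhancing when its fold-change classes with vehicle and with vemurafenib, taken together, show a stronger drug effect on cell gain or lactate per cell; exact class pairs not stated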. Meaning of the calls: active = enhances vemurafenib effect; inactive = no enhancement seen.
In all, the deposit lists about 18,000 reagents; this is an unselected part. 790 of all reagents (4.4%) count as active. 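Calls rest on a combination of fold-change classes in drug and vehicle arms, not all shown here.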 Entries without a mark were called inactive. A reagent listed more than once was tested more than once; the source does not tell the runs apart. No sequences are given here.

no.	gene	PubChem SID	cell gain with vemurafenib	lactate per cell with vemurafenib
1	COLGALT1	SID134322033	0.51	1.08
2	FSCN3	SID135624076	0.39	1.23
3	EIF4E	SID152155755	0.47	0.94
4	HTR3B	SID134311623	0.5	1.01
5	HTR3B	SID134311623	0.21	1.09
6	RTL6	SID134318923	0.29	1.98
7	CYBA	SID135622037	0.5	0.54
8	HPS5	SID134321400	1.16	0.69
9	ARSF	SID134314090	0.64	0.82
10	ST8SIA2	SID152156754	0.63	1.14
11	HLA-DRB4	SID152156229	0.9	1.12
12	GSS	SID134314317	0.19	0.85
13	NSF	SID135621765	0.77	0.89
14	L1TD1	SID152152103	0.35	1.77
15	TRMT10B	SID152149755	0.77	1.01
16	RHBDL1	SID134311449	0.74	0.96
17	CXCL2	SID152149091	0.85	0.38
18	ZNF621	SID152155407	0.71	0.73
19	COX5B	SID134317849	0.9	1.96
20	TTLL6	SID152147177	0.54	1.44
21	CDK5RAP1	SID56479268	0.4	0.74
22	OR8H3	SID152156618	0.68	0.69
23	SPIRE2	SID135624315	0.12	1.31
24	MYLK	SID152147192	0.66	1.08
25	CPNE5	SID152146835	0.44	1.18
26	RBM45	SID152149016	0.94	0.55
27	FOXD4L1	SID135621659	1.05	0.52
28	MNX1	SID152154865	0.32	1.54
29	RFX5	SID135622055	-0.01	1.97
30	RALGAPB	SID152149634	0.62	1.52
31	FPR3	SID134310764	0.73	1.06
32	MKI67	SID152150821	-0.02	1.02
33	KCNJ2	SID134311665	0.87	0.57
34	MPHOSPH6	SID152149087	0.84	0.92
35	SPDYA	SID152148563	0.43	0.84
36	MSL3	SID135622299	0.6	2.14
37	OSGEPL1	SID135621117	0.74	1.02
38	COASY	SID56479117	0.31	1.11
39	ADAMTS14	SID152150189	0.16	1.96
40	PPOX	SID135621561	0.33	1.12
41	ADD1	SID134314222	0.68 (active)	0.48
42	EMC8	SID134329970	0.5	1.27
43	PRIM1	SID135623938	0.47	1.88
44	MTFR2	SID152152261	-0.17	1.48
45	TIGD4	SID134321377	0.73	0.77
46	CCNO	SID135621587	1.06	0.7
47	IFT22	SID134318388	0.33	1.26
48	POLD1	SID152154507	0.9	0.71
49	SPP2	SID152154509	0.74 (active)	0.48
50	WBP1	SID134316755	0.5	1.5
51	CNOT8	SID134322632	1.14	0.64
52	GGTLC1	SID134311314	0.42	1.1
53	ZNF491	SID135623588	0.66	1.08
54	DNASE1L3	SID152155119	0.66	0.82
55	CYB5R1	SID134313467	0.64	1.38
56	PRR23B	SID135624753	0.32	1.73
57	OR6C74	SID135625145	0.58	1.06

A stretch taken from the entries so far:
no.	gene	PubChem SID	cell gain with vemurafenib	lactate per cell with vemurafenib
43	PRIM1	SID135623938	0.47	1.88
44	MTFR2	SID152152261	-0.17	1.48
45	TIGD4	SID134321377	0.73	0.77
46	CCNO	SID135621587	1.06	0.7
47	IFT22	SID134318388	0.33	1.26
48	POLD1	SID152154507	0.9	0.71
49	SPP2	SID152154509	0.74 (active)	0.48
50	WBP1	SID134316755	0.5	1.5
51	CNOT8	SID134322632	1.14	0.64
